± gives the standard deviation of the averaged measurements. This is one part of the list.
Compound: Nc1nc2c(ncn2[C@@H]2O[C@H](COP(=O)(O)OP(=O)(O)OP(=O)(O)O)[C@@H](O)[C@H]2O)c(=O)[nH]1 [guanosine triphosphate]
Assay: NP40-soluble protein abundance relative to vehicle (solubility fold change) (ratio); higher = more soluble protein in presence of GTP
Summary of the method: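 Data come from three independent experiments in which Dounce-homogenised Jurkat crude lysate was treated at eight concentrations from 0.1 to 10 mM. Treatment ran 10 min at room temperature and then 3 min at 37 °C, after which 0.8% NP40 and benzonase were added for 60 min at 4 °C before ultracentrifugation. The supernatant underwent TMT labelling and LC-MS/MS, and vsn-normalised intensities were expressed as fold change against the detergent-processed vehicle in each replicate.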

Chains of the proteins cited; added tags and fusions are not shown. Lines headed by an entry give the natural chain unless they say otherwise; changes in a name come on top.
UniProt Q15057: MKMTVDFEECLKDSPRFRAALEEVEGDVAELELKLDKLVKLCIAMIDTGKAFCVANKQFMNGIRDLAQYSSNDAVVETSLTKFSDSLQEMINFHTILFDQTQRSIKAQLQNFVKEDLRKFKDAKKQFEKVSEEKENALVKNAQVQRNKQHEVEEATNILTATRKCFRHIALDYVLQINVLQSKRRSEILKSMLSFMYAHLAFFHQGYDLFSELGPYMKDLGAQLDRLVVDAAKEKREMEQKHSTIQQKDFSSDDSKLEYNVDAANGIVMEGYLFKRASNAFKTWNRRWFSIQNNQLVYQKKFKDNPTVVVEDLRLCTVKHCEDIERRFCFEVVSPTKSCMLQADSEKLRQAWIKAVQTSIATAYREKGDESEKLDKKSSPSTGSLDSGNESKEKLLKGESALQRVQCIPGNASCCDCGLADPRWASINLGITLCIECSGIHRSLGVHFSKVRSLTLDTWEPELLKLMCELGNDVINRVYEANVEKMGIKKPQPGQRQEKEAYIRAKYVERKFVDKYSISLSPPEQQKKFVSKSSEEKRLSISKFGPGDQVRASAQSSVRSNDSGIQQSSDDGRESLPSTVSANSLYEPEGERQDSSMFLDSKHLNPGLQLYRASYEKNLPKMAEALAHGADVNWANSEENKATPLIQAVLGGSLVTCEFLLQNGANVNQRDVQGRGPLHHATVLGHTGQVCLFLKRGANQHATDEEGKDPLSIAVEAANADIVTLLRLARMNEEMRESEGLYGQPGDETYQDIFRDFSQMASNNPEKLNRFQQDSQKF
UniProt Q53EL6: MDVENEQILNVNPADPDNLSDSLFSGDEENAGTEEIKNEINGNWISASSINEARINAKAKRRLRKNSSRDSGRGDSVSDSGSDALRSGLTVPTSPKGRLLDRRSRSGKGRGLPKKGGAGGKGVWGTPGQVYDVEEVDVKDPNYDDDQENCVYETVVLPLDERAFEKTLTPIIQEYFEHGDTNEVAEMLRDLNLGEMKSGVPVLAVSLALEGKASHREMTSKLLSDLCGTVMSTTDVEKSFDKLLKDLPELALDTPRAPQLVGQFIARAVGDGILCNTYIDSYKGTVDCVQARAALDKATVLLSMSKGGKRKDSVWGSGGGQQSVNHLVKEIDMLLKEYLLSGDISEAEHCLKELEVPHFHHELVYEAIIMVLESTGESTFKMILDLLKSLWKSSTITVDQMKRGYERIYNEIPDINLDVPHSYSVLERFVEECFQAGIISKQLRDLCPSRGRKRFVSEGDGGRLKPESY
UniProt Q15102: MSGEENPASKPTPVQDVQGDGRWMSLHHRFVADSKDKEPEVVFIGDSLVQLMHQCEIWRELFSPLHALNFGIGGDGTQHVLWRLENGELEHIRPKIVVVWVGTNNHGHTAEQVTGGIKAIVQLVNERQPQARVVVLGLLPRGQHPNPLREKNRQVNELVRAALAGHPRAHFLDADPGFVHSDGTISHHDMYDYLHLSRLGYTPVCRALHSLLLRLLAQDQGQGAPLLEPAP
UniProt Q14696: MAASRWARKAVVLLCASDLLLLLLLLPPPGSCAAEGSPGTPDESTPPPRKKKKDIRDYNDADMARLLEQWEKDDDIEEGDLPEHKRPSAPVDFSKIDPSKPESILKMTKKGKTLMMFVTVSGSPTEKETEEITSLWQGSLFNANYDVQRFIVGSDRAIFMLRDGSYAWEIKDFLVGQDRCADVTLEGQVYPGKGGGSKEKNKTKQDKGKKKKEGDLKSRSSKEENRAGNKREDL
UniProt Q92530: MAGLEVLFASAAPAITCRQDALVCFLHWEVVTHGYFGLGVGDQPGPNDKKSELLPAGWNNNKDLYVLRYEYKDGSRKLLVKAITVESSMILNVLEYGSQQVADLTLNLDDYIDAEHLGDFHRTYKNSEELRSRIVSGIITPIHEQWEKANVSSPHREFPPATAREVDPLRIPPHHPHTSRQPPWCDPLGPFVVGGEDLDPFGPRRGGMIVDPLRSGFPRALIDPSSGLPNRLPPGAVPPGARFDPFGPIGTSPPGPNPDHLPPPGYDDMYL
UniProt Q5GLZ8: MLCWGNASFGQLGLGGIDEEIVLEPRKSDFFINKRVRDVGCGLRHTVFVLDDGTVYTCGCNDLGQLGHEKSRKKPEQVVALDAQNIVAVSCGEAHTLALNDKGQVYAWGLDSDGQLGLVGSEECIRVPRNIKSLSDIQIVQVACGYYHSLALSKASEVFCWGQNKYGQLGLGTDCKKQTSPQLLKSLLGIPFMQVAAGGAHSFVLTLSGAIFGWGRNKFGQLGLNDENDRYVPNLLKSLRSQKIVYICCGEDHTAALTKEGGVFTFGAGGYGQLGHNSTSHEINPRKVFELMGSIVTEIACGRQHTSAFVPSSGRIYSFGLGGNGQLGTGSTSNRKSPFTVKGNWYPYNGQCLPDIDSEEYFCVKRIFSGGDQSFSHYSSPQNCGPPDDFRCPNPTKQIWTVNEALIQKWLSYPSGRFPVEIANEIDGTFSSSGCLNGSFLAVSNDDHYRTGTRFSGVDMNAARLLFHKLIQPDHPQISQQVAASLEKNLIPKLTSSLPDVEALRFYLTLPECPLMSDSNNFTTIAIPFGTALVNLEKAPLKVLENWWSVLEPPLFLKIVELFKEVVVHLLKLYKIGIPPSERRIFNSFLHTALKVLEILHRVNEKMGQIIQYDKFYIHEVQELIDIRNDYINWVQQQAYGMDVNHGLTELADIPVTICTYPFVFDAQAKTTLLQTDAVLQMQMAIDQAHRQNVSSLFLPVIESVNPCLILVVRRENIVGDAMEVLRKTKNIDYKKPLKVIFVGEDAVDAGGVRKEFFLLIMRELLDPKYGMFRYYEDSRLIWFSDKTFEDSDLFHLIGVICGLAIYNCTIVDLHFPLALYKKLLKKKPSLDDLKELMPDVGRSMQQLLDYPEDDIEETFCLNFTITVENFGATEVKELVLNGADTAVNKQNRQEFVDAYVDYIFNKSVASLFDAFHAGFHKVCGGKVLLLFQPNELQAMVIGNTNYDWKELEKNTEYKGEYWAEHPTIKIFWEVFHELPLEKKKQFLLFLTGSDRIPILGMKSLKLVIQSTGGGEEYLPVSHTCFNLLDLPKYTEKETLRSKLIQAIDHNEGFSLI
UniProt Q5FBB7: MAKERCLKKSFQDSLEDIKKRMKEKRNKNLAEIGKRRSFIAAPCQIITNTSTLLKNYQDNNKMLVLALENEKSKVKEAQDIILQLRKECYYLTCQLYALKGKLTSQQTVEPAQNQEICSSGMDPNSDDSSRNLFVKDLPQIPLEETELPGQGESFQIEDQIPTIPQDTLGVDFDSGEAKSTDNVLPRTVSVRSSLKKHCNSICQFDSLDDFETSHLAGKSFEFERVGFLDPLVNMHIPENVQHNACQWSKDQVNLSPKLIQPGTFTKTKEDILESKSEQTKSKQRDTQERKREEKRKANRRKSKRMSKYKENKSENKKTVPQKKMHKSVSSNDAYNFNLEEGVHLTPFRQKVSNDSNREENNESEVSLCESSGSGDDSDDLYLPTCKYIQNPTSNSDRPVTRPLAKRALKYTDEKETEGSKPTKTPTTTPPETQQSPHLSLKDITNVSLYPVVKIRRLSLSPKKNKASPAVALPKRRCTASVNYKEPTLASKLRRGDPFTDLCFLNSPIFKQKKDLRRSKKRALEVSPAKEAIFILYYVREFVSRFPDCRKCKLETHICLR
UniProt Q16539, whole entry: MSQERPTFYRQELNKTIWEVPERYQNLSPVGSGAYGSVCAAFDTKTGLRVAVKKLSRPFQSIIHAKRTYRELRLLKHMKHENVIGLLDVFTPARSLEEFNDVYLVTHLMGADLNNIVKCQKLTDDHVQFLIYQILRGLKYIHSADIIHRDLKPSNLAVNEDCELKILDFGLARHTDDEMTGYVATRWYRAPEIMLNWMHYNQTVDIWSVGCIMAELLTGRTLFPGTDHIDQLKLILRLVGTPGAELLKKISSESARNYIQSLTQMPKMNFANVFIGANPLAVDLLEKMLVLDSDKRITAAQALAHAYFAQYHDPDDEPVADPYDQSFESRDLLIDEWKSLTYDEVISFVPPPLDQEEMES
UniProt Q15714: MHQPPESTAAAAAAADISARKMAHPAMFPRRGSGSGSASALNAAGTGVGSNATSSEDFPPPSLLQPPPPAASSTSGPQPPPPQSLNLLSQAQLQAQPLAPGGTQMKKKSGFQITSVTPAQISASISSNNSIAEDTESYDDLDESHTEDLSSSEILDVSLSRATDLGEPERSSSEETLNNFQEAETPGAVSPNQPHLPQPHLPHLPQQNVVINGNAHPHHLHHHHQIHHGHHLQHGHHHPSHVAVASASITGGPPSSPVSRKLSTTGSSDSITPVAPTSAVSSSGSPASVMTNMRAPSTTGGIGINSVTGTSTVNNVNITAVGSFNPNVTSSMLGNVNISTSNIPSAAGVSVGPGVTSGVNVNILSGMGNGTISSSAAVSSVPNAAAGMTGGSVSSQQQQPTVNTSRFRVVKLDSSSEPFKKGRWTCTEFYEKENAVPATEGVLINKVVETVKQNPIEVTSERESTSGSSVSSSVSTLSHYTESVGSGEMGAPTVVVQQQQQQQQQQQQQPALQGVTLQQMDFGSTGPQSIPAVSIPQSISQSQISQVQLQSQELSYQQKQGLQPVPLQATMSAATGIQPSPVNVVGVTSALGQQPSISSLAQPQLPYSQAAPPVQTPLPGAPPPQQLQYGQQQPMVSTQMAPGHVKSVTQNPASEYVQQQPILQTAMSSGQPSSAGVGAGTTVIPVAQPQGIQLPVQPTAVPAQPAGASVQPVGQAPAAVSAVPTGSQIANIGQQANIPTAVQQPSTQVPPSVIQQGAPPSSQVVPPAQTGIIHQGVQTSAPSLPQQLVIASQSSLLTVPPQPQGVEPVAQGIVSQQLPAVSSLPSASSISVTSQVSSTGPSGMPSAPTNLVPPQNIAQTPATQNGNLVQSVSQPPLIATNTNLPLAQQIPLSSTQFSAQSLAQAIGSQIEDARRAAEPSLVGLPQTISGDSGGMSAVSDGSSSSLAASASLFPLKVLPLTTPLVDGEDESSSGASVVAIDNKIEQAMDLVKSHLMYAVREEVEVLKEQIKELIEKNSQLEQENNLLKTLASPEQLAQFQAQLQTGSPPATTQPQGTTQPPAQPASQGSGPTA
UniProt Q5T3I0: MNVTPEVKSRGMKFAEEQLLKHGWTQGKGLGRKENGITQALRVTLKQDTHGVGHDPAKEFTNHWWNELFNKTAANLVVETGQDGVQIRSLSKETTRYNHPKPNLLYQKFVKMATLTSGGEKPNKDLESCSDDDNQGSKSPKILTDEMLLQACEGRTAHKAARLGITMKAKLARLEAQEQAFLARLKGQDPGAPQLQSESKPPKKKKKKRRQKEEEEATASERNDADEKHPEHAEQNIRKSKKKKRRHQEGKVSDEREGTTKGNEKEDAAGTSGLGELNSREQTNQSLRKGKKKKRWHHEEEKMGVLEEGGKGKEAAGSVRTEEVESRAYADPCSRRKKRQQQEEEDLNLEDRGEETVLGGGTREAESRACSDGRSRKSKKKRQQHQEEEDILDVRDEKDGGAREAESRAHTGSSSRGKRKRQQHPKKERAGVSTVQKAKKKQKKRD
UniProt Q15365, whole entry: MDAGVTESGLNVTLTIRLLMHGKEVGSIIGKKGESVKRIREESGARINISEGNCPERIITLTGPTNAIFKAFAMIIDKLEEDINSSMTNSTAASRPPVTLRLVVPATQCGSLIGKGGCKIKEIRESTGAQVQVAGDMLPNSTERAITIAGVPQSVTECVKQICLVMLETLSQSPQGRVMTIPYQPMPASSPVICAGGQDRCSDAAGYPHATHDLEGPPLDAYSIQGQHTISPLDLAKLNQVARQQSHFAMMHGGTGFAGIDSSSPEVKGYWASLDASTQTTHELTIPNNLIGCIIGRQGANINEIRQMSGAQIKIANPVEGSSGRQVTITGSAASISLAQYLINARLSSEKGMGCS
UniProt Q5RI15: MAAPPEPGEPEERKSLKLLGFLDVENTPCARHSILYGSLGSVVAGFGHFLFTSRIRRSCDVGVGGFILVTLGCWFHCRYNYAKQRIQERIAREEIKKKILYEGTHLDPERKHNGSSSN
UniProt Q3SXM5: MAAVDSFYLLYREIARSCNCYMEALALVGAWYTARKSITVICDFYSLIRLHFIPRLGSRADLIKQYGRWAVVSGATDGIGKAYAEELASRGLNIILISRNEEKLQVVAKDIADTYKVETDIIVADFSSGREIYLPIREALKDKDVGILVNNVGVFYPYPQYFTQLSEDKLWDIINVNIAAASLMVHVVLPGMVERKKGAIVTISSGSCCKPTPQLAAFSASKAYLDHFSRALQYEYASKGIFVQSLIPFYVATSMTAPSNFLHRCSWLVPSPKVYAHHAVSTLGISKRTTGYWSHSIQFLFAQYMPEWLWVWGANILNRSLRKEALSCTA
UniProt Q5RKV6, whole entry: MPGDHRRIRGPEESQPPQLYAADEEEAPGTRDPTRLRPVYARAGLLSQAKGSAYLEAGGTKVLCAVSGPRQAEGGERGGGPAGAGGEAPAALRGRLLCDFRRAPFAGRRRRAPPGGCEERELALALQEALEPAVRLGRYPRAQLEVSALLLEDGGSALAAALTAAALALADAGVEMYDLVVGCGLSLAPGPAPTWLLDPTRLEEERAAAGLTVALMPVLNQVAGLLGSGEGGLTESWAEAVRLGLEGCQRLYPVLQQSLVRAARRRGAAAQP

| Target | NP40-soluble protein abundance (concentration: 0.1mM) | NP40-soluble protein abundance (concentration: 0.5mM) | NP40-soluble protein abundance (concentration: 1mM) | NP40-soluble protein abundance (concentration: 2mM) | NP40-soluble protein abundance (concentration: 4mM) | NP40-soluble protein abundance (concentration: 6mM) | NP40-soluble protein abundance (concentration: 8mM) | NP40-soluble protein abundance (concentration: 10mM) |
| --- | --- | --- | --- | --- | --- | --- | --- | --- |
| UniProt Q15843 and related entries | 1.1 ± 0.29 | 0.839 ± 0.092 | 1.25 ± 0.31 | 0.955 ± 0.21 | 1.09 ± 0.29 | 0.994 ± 0.18 | 1.11 ± 0.4 | 1.07 ± 0.25 |
| UniProt Q15057 and related entries | 0.995 ± 0.038 | 1.02 ± 0.043 | 0.929 ± 0.032 | 0.941 ± 0.048 | 0.896 ± 0.054 | 0.91 ± 0.027 | 0.881 ± 0.02 | 0.907 ± 0.043 |
| UniProt Q53EL6 and related entries | 0.992 ± 0.14 | 1.08 ± 0.18 | 1.12 ± 0.24 | 1.23 ± 0.34 | 1.45 ± 0.45 | 1.66 ± 0.47 | 1.81 ± 0.48 | 2.16 ± 0.58 |
| UniProt Q15853 and related entries | 0.985 ± 0.05 | 0.943 ± 0.074 | 0.952 ± 0.078 | 0.919 ± 0.12 | 0.877 ± 0.099 | 0.909 ± 0.088 | 0.947 ± 0.062 | 0.926 ± 0.12 |
| PAFAH1B3 (UniProt Q15102) | 0.938 ± 0.072 | 0.934 ± 0.064 | 0.862 ± 0.011 | 0.897 ± 0.059 | 0.866 ± 0.026 | 0.862 ± 0.027 | 0.779 ± 0.061 | 0.832 ± 0.079 |
| UniProt Q16181-2 | 1.02 ± 0.015 | 1.02 ± 0.012 | 0.9706 ± 0.0042 | 0.932 ± 0.012 | 0.937 ± 0.012 | 0.928 ± 0.015 | 0.95 ± 0.012 | 0.891 ± 0.023 |
| UniProt Q14696 | 0.938 ± 0.015 | 0.939 ± 0.071 | 0.938 ± 0.049 | 0.892 ± 0.074 | 0.878 ± 0.069 | 0.906 ± 0.081 | 0.902 ± 0.042 | 0.909 ± 0.069 |
| UniProt Q15084 and related entries | 0.908 ± 0.055 | 0.928 ± 0.062 | 0.9 ± 0.049 | 0.858 ± 0.064 | 0.828 ± 0.059 | 0.865 ± 0.066 | 0.854 ± 0.056 | 0.868 ± 0.075 |
| Q5QPM7 and related entries (UniProt Q92530) | 0.996 ± 0.039 | 0.953 ± 0.033 | 1.04 ± 0.046 | 1.05 ± 0.02 | 1.04 ± 0.036 | 1.03 ± 0.069 | 0.999 ± 0.012 | 1.04 ± 0.025 |
| UniProt Q15750 and related entries | 0.94 ± 0.1 | 0.963 ± 0.1 | 0.892 ± 0.081 | 0.949 ± 0.045 | 0.894 ± 0.064 | 0.89 ± 0.046 | 0.877 ± 0.099 | 0.929 ± 0.095 |
| SF3A1 (UniProt Q15459) | 0.984 ± 0.028 | 1.03 ± 0.043 | 1.05 ± 0.045 | 1.03 ± 0.053 | 1.04 ± 0.034 | 1.05 ± 0.047 | 1.09 ± 0.084 | 1.07 ± 0.073 |
| UniProt Q5GLZ8 and related entries | 1.07 ± 0.094 | 1.12 ± 0.07 | 1 ± 0.1 | 1.01 ± 0.038 | 1.01 ± 0.037 | 0.983 ± 0.058 | 0.948 ± 0.074 | 0.911 ± 0.063 |
| WDR43 (UniProt Q15061) | 1.03 ± 0.017 | 1.04 ± 0.059 | 1.05 ± 0.018 | 1.16 ± 0.051 | 1.34 ± 0.083 | 1.46 ± 0.12 | 1.58 ± 0.058 | 1.73 ± 0.088 |
| UniProt Q5FBB7 and related entries | 0.94 ± 0.048 | 0.948 ± 0.081 | 1.02 ± 0.11 | 1.09 ± 0.062 | 0.995 ± 0.085 | 1.03 ± 0.089 | 1.02 ± 0.069 | 1.03 ± 0.14 |
| Q5QPA5 and related entries (UniProt Q9NVS2) | 1.06 ± 0.21 | 1.2 ± 0.43 | 1.29 ± 0.29 | 1.45 ± 0.41 | 1.43 ± 0.44 | 1.43 ± 0.47 | 1.35 ± 0.44 | 1.35 ± 0.49 |
| UniProt Q16539 and related entries | 0.9976 ± 0.0083 | 1.04 ± 0.012 | 0.971 ± 0.014 | 0.979 ± 0.057 | 0.946 ± 0.044 | 0.944 ± 0.03 | 0.921 ± 0.02 | 0.895 ± 0.057 |
| TSC22D1 (UniProt Q15714) | 0.935 ± 0.039 | 1.06 ± 0.084 | 1.08 ± 0.09 | 1.06 ± 0.16 | 0.974 ± 0.085 | 1.03 ± 0.12 | 1.03 ± 0.012 | 1.06 ± 0.16 |
| UniProt Q5T280 | 1.1 ± 0.1 | 1.05 ± 0.052 | 1.11 ± 0.14 | 1.16 ± 0.056 | 1.29 ± 0.047 | 1.41 ± 0.087 | 1.54 ± 0.08 | 1.69 ± 0.028 |
| UniProt Q5T3I0 and related entries | 0.995 ± 0.088 | 1.05 ± 0.1 | 1.13 ± 0.21 | 1.19 ± 0.17 | 1.32 ± 0.24 | 1.33 ± 0.094 | 1.46 ± 0.32 | 1.49 ± 0.22 |
| UniProt Q16774 and related entries | 0.8938 ± 0.0022 | 0.885 ± 0.04 | 0.947 ± 0.041 | 0.93 ± 0.072 | 0.863 ± 0.062 | 0.902 ± 0.089 | 0.839 ± 0.098 | 0.875 ± 0.088 |
| UniProt Q15365 | 0.941 ± 0.089 | 0.933 ± 0.078 | 0.953 ± 0.072 | 0.935 ± 0.077 | 0.952 ± 0.074 | 0.931 ± 0.053 | 0.939 ± 0.085 | 0.951 ± 0.071 |
| QRICH1 (UniProt Q2TAL8) | 0.908 ± 0.098 | 0.912 ± 0.095 | 0.897 ± 0.094 | 0.881 ± 0.098 | 0.872 ± 0.13 | 0.889 ± 0.092 | 0.865 ± 0.096 | 0.885 ± 0.098 |
| UniProt Q5RI15 and related entries | 0.954 ± 0.12 | 0.973 ± 0.17 | 1.02 ± 0.086 | 0.908 ± 0.16 | 0.895 ± 0.13 | 0.943 ± 0.15 | 1.02 ± 0.12 | 0.902 ± 0.12 |
| SURF2 (UniProt Q15527) | 0.934 ± 0.072 | 0.967 ± 0.091 | 0.989 ± 0.025 | 0.988 ± 0.088 | 0.998 ± 0.079 | 1.03 ± 0.064 | 1.09 ± 0.063 | 1.08 ± 0.083 |
| UniProt Q15006 | 0.987 ± 0.011 | 0.957 ± 0.023 | 0.928 ± 0.033 | 0.943 ± 0.03 | 0.91 ± 0.03 | 0.914 ± 0.032 | 0.887 ± 0.018 | 0.9 ± 0.032 |
| ARHGEF6 (UniProt Q15052) | 1.03 ± 0.014 | 1.03 ± 0.018 | 1.03 ± 0.041 | 1.03 ± 0.014 | 1.03 ± 0.034 | 1.01 ± 0.038 | 1.03 ± 0.054 | 0.985 ± 0.023 |
| HSDL1 (UniProt Q3SXM5) | 1.13 ± 0.21 | 1.17 ± 0.16 | 0.98 ± 0.065 | 1.01 ± 0.27 | 0.98 ± 0.16 | 0.958 ± 0.097 | 0.896 ± 0.045 | 0.897 ± 0.089 |
| C19orf54 (UniProt Q5BKX5) | 0.97 ± 0.06 | 0.927 ± 0.088 | 0.918 ± 0.067 | 0.908 ± 0.08 | 0.906 ± 0.06 | 0.8831 ± 0.0086 | 0.861 ± 0.053 | 0.851 ± 0.07 |
| ARID4B (UniProt Q4LE39) | 1 ± 0.027 | 1.01 ± 0.022 | 1.06 ± 0.017 | 1.05 ± 0.02 | 1.074 ± 0.0032 | 1.08 ± 0.018 | 1.13 ± 0.098 | 1.13 ± 0.074 |
| EXOSC6 (UniProt Q5RKV6) | 1.07 ± 0.068 | 1.01 ± 0.029 | 1.07 ± 0.035 | 1.12 ± 0.054 | 1.24 ± 0.14 | 1.23 ± 0.12 | 1.25 ± 0.056 | 1.27 ± 0.093 |

A second format for some results above:
Target	NP40-soluble protein abundance (concentration: 0.1mM)	NP40-soluble protein abundance (concentration: 0.5mM)	NP40-soluble protein abundance (concentration: 1mM)	NP40-soluble protein abundance (concentration: 2mM)	NP40-soluble protein abundance (concentration: 4mM)	NP40-soluble protein abundance (concentration: 6mM)	NP40-soluble protein abundance (concentration: 8mM)	NP40-soluble protein abundance (concentration: 10mM)
SF3A1 (UniProt Q15459)	0.984 ± 0.028	1.03 ± 0.043	1.05 ± 0.045	1.03 ± 0.053	1.04 ± 0.034	1.05 ± 0.047	1.09 ± 0.084	1.07 ± 0.073
UniProt Q5GLZ8 and related entries	1.07 ± 0.094	1.12 ± 0.07	1 ± 0.1	1.01 ± 0.038	1.01 ± 0.037	0.983 ± 0.058	0.948 ± 0.074	0.911 ± 0.063
WDR43 (UniProt Q15061)	1.03 ± 0.017	1.04 ± 0.059	1.05 ± 0.018	1.16 ± 0.051	1.34 ± 0.083	1.46 ± 0.12	1.58 ± 0.058	1.73 ± 0.088
UniProt Q5FBB7 and related entries	0.94 ± 0.048	0.948 ± 0.081	1.02 ± 0.11	1.09 ± 0.062	0.995 ± 0.085	1.03 ± 0.089	1.02 ± 0.069	1.03 ± 0.14
Q5QPA5 and related entries (UniProt Q9NVS2)	1.06 ± 0.21	1.2 ± 0.43	1.29 ± 0.29	1.45 ± 0.41	1.43 ± 0.44	1.43 ± 0.47	1.35 ± 0.44	1.35 ± 0.49
UniProt Q16539 and related entries	0.9976 ± 0.0083	1.04 ± 0.012	0.971 ± 0.014	0.979 ± 0.057	0.946 ± 0.044	0.944 ± 0.03	0.921 ± 0.02	0.895 ± 0.057
TSC22D1 (UniProt Q15714)	0.935 ± 0.039	1.06 ± 0.084	1.08 ± 0.09	1.06 ± 0.16	0.974 ± 0.085	1.03 ± 0.12	1.03 ± 0.012	1.06 ± 0.16
UniProt Q5T280	1.1 ± 0.1	1.05 ± 0.052	1.11 ± 0.14	1.16 ± 0.056	1.29 ± 0.047	1.41 ± 0.087	1.54 ± 0.08	1.69 ± 0.028
